From paper PMC8920379, “The discovery of berberine erythrocyte-hemoglobin self-assembly delivery system: a neglected carrier underlying its pharmacokinetics” (Drug Delivery, 2022) come the findings set out here.

This data set has as its system 30% erythrocytes. The data set is described as follows: Transmission electron microscopy of BBR-loaded erythrocytes. The data set is classed as cell-based, rats. The settings on record: 30% erythrocytes treated with 0.5 M BBR, 37 °C, 2 h, vs PBS control.

“Also recorded” adds a separate entry of the source.

For the molecule `COc1ccc2cc3[n+](cc2c1OC)CCc1cc2c(cc1-3)OCO2` [BBR, Berberine], the “morphology of erythrocytes by electron microscopy” value is “spheroidal with several intracellular vesicles; also recorded: spheroidal with litter hemolysis and several discrete vacuoles”.
